The record followed here is EP0642343B1, “Acridine carboxamides for the treatment of cancer” (XENOVA LIMITED, priority 1992, dated 1993).

SMILES strings stand for the structures.

This data set relates to panel of cell lines encompassing a number of tumour types. The data set is described as follows: NCI cell line panel, growth inhibition by protein staining. The settings on record: standard deviation in log10 units. Format: cell-based. On the procedure:
Tumour cell lines were cultured in 96-well plates. Growth of NCI cell lines was assessed using sulpho-rhodamine B staining (Skehan P., et al., J. Natl. Cancer Inst. 1990, 82, 1107-1112), that of the leukaemia lines with (4,5-dimethylthiazole-2-yl)-2,5-diphenyltetrazolium (MTT) staining (Mosmann T., J. Immun. Methods 1983, 65, 55-63) and that of the primary human tumour material by ^3H-thymidine incorporation (Marshall E.S., et al., J. Natl. Cancer Inst. 1992, 84, 341-344). Primary tumour material was cultured in 96-well plates in which the wells were coated with agarose to inhibit selectively the growth of normal cells. (Marshall E.S., et al., J. Natl. Cancer Inst. 1992, 84, 341-344). Primary cultures were incubated at 37°C in sealed perspex boxes containing a humidified atmosphere of 5% CO2 and 5% O2 in nitrogen for 7 days. 5-Methyl-[^3H]-thymidine (20 Ci.mmol^-1; 0.04 µCi per well), thymidine and 5-fluorodeoxyuridine (each at final concentrations of 0.5 µM) were added in medium to cultures (20 µl per well) 24 h before terminating the cultures. Cells were aspirated on to glass fibre filters using a multiple automated sample harvester (LKB Wallac OY Beta Harvester). The filter discs were washed for 15 seconds with water, dried, and the amount of tritium retained quantified by liquid scintillation.
IC50 values were defined as in Paull K.D., et al., J. Natl. Cancer Inst. 1989, 81:1088-1092, where growth, as indicated by staining or thymidine incorporation, corresponded to 50% of that of the control cultures. […] Variances of DELTA values were expressed as standard deviations in log10 units. Comparison of DELTA values was made using Pearson correlation coefficients. Resistance factors were defined as the ratios of IC50 values between the resistant line and the parent line. Statistical evaluation was performed either with NCI programmes, with RS/1 software (BBN Research Systems, Cambridge, MA, USA), or with Sigmaplot (Jandel Scientific, San Rafael, CA, USA).
As to `CN(C)CCNC(=O)c1cccc2cc3ccccc3nc12` [DACA, N-[2-(dimethylamino)ethyl]acridine-4-carboxamide], the “variance of DELTA values” turned out to be 0.24 units. As for `COc1cccc2c1C(=O)c1c(O)c3c(c(O)c1C2=O)C[C@@](O)(C(=O)CO)C[C@@H]3O[C@H]1C[C@H](N)[C@H](O)[C@H](C)O1` [doxorubicin], the figure is 0.44 units; as for `COc1cc([C@@H]2c3cc4c(cc3[C@@H](O[C@@H]3O[C@@H]5CO[C@@H](C)O[C@H]5[C@H](O)[C@H]3O)[C@H]3COC(=O)[C@H]23)OCO4)cc(OC)c1O` [etoposide], 0.55 units.
